Results taken from patent US20030055052A1 (priority 2000, published 2003).
One purity is given for all peptides; the source may state it once.

Tests used:
[1] = general procedure: Fmoc solid-phase peptide synthesis; H-Pro-2-chlorotritylchloride-resin; AMCA-resin; DIC/HOBt; HATU/HOAT/DIEA for first residue on AMCA-resin
[2] = general procedure: Fmoc solid-phase peptide synthesis; AMCA-resin; DIC/HOBt; HATU/HOAT/DIEA for first residue on AMCA-resin; conditions: whole synthesis, scale of the general procedure 200 mg resin, 0.158
[3] = whole synthesis, scale of the general procedure 200 mg resin, 0.158

Benzyloxycarbonyl-Thz-Ala-Gly-Pro-Doxorubicin
final HPLC purity ([1]; conjugation step): HPLC>95%

Benzyloxycarbonyl-Thz-Ala-Gly-Pro-OH
final HPLC purity [1, 3]: HPLC>95%

Pyridin-3-ylmethoxycarbonyl-Thz-Ala-Gly-Pro-OH
final HPLC purity [1, 3]: HPLC>95%

Z-Thz-Ala-Gly-Pro-AMCA-OH
final HPLC purity [2]: HPLC>95%
